{
  "sequences": {"note": "Sequences of proteins named here, by UniProt entry; tags and fusion partners are left off. A change or cut given only in a name is not applied to a line headed by its entry.", "UniProt O95684": "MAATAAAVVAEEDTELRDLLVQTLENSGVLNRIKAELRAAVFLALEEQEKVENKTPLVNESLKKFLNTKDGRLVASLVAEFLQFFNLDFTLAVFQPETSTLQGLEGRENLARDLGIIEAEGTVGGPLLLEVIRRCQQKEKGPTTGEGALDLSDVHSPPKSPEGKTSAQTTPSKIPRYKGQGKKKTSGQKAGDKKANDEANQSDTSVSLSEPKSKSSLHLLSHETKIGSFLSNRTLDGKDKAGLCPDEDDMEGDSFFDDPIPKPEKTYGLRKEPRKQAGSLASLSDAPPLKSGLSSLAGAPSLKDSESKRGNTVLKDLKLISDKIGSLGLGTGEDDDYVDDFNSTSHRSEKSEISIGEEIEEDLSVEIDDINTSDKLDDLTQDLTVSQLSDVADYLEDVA", "UniProt P11362": "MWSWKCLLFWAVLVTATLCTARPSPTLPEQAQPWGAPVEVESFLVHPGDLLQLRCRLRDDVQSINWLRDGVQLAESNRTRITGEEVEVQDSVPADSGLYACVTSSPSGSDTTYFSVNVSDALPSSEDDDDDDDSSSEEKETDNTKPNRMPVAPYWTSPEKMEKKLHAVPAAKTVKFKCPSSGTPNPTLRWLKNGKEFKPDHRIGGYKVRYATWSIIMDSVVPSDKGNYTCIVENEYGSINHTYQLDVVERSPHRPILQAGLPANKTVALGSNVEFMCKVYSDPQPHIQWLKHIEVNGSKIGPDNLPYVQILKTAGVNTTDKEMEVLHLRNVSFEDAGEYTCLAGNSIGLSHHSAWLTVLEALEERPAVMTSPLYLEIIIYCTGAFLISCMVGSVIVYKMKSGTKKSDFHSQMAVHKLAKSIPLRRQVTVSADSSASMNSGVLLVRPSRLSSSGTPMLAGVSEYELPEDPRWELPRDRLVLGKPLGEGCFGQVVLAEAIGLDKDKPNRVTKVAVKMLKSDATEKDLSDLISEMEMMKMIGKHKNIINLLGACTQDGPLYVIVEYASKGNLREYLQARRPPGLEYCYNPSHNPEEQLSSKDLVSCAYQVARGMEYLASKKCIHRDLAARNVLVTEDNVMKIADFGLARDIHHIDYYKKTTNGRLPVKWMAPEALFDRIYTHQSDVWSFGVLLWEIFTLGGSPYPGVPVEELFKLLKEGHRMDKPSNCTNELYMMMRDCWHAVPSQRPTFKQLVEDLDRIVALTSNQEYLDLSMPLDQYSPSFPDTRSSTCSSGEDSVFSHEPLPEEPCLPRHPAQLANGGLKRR"},
  "source": "paper PMC3962438",
  "target": "FOP-FGFR1 (wild-type MPN fusion), Myc-tagged and GFP-tagged copies, in vitro translated (human) (UniProt O95684+P11362)",
  "experiment": "co-IP; constructs in vitro translated in reticulocyte lysate; GFP-tagged FOP-FGFR1 constructs immunoprecipitated, Myc-tagged FOP-FGFR1 constructs assessed in the IP",
  "note": "No constants are given. Whether binding was seen depends on the method and setting. Binding seen in cells or lysates may run through a third protein. Some results given as binding are weak or reduced against the parent protein; the word gives no strength.",
  "data": [
    {"substance": "FOP-FGFR1 (wild-type MPN fusion), Myc-tagged and GFP-tagged copies, in vitro translated (from UniProt O95684 1-173; P11362 429-822)", "values": [
      {"measurement": "binding", "result": "binds"}
    ]}
  ]
}
